Measured values from paper PMC6072516, “Rational design and synthesis of novel phenylsulfonyl-benzamides as anti-prostate cancer agents” (MedChemComm, 2017).

How the values were obtained:
VCaP = assay: 2D monolayer antiproliferative assay (propidium iodide), VCaP; settings: Homo sapiens, 96 h, read-out: Absolute IC50 VCaP
LNCaP = assay: 2D monolayer antiproliferative assay (propidium iodide), LNCaP; settings: Homo sapiens, 96 h, read-out: Absolute IC50 LNCaP
22Rv1 = assay: 2D monolayer antiproliferative assay (propidium iodide), 22Rv1; settings: Homo sapiens, 22Rv1, 96 h, read-out: Absolute IC50 22Rv1
[1] = system: four human prostate cancer cell lines: LNCaP, 22Rv1, VCaP, DU145; assay: Antiproliferative assay, overall effect in the four cell lines (geometric mean); format: cell-based; settings: geometric mean of the four cell lines, read-out: Absolute IC50 Geo. mean
Procedure: PCR based DNA-fingerprinting methodology.
density of 4.000 – 30.000 cells/well.
test compound were added.
concentrations in triplicate.
After an incubation period of
control/background ratio >3.0
The absolute IC50 value reflects the
The calculation was done by a 4
for calculation of the geometric mean value.
of 0.05% Trypsin/EDTA. […] When all cells

IC50 (VCaP): 24.5 µM
IC50 (LNCaP): 20.9 µM
IC50 (22Rv1): 24.8 µM
IC50 [1]: 27.4 µM
SMILES: CNC(=O)c1ccc(N2C(=S)N(c3ccc(C#N)c(C(F)(F)F)c3)C(=O)C2(C)C)cc1F [Enzalutamide, enzalutamide, reference compound]
